These are yes or no findings as the source states them, for the method shown. Binding seen in cells or lysates may run through a third protein. Some results given as binding are weak or reduced against the parent protein; the word gives no strength. Sequences can lack the tags named with a protein.
T1: Flag-IFT27 (UniProt Q9BW83)
T1 sequence: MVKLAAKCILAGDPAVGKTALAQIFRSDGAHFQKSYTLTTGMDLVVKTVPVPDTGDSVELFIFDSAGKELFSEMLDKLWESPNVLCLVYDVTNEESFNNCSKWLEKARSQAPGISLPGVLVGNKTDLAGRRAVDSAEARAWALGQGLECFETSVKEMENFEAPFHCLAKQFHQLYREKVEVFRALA

Sequences of proteins named here, by UniProt entry; tags and fusion partners are left off.
UniProt Q14980: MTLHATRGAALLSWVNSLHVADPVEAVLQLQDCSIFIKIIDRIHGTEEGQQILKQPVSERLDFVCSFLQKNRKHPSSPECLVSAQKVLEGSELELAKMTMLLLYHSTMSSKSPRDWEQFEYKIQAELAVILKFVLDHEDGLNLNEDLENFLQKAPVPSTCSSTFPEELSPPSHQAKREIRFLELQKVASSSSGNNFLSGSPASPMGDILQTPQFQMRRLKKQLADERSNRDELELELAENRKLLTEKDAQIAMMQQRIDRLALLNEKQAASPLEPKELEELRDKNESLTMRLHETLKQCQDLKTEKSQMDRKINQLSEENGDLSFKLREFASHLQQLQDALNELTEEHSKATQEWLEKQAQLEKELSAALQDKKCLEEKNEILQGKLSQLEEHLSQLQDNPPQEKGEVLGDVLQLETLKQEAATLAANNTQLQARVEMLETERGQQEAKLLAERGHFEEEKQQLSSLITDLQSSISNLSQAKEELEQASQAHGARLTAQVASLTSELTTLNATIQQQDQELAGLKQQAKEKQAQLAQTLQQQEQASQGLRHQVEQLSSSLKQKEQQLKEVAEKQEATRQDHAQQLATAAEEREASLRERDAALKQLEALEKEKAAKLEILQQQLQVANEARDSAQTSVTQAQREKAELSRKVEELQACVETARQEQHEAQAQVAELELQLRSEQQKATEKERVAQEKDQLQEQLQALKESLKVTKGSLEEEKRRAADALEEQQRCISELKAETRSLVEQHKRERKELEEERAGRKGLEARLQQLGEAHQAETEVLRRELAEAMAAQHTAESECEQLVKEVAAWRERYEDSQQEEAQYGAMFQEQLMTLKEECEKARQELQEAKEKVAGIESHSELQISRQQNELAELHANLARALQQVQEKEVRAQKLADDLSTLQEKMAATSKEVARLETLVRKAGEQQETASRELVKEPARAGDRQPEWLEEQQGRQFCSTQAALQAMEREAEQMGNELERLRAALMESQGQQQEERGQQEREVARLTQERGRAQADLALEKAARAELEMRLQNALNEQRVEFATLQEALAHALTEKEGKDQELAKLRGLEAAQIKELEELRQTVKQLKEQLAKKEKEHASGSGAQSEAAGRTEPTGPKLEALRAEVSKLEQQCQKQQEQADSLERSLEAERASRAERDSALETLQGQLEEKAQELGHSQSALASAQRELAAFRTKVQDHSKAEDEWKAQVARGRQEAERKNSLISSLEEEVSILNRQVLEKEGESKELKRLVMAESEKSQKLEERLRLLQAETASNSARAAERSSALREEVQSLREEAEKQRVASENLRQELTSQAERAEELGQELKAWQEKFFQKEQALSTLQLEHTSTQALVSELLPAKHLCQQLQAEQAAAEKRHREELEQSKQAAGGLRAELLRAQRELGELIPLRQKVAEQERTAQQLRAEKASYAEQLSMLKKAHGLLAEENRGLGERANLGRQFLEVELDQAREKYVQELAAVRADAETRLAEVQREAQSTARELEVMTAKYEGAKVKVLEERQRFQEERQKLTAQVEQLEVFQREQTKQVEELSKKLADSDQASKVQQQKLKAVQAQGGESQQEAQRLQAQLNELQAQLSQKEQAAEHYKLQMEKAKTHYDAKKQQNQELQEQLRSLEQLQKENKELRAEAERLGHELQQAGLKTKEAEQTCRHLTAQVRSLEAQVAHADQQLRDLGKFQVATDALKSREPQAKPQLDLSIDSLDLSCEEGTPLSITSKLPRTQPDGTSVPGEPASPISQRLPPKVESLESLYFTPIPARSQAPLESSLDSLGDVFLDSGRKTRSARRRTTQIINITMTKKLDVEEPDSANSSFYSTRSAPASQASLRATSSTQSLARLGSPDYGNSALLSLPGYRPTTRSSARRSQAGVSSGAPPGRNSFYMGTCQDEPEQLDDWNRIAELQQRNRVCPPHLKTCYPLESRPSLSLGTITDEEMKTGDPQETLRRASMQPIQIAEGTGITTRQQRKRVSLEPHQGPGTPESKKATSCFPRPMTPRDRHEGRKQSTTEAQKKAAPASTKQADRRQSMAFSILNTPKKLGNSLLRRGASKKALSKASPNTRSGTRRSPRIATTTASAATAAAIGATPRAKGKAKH

B1: IFT88 (protein, UniProt Q13099 1-824)
chain: MMQNVHLAPETDEDDLYSGYNDYNPIYDIEELENDAAFQQAVRTSHGRRPPITAKISSTAVTRPIATGYGSKTSLASSIGRPMTGAIQDGVTRPMTAVRAAGFTKAALRGSAFDPLSQSRGPASPLEAKKKDSPEEKIKQLEKEVNELVEESCIANSCGDLKLALEKAKDAGRKERVLVRQREQVTTPENINLDLTYSVLFNLASQYSVNEMYAEALNTYQVIVKNKMFSNAGILKMNMGNIYLKQRNYSKAIKFYRMALDQVPSVNKQMRIKIMQNIGVTFIQAGQYSDAINSYEHIMSMAPNLKAGYNLTICYFAIGDREKMKKAFQKLITVPLEIDEDKYISPSDDPHTNLVTEAIKNDHLRQMERERKAMAEKYIMTSAKLIAPVIETSFAAGYDWCVEVVKASQYVELANDLEINKAVTYLRQKDYNQAVEILKVLEKKDSRVKSAAATNLSALYYMGKDFAQASSYADIAVNSDRYNPAALTNKGNTVFANGDYEKAAEFYKEALRNDSSCTEALYNIGLTYEKLNRLDEALDCFLKLHAILRNSAEVLYQIANIYELMENPSQAIEWLMQVVSVIPTDPQVLSKLGELYDREGDKSQAFQYYYESYRYFPCNIEVIEWLGAYYIDTQFWEKAIQYFERASLIQPTQVKWQLMVASCFRRSGNYQKALDTYKDTHRKFPENVECLRFLVRLCTDLGLKDAQEYARKLKRLEKMKEIREQRIKSGRDGSGGSRGKREGSASGDSGQNYSASSKGERLSARLRALPGTNEPYESSSNKEIDASYVDPLGPQIERPKTAAKKRIDEDDFADEELGDDLLPE

Target: T1, Flag-IFT27
Assay: co-IP

Molecule	binding
YFP-NuMA (from UniProt Q14980 1-2115)	binds
B1	binds
